Data as given in PubChem BioAssay AID504786 (Drosophila RNAi Screening Center, 2011).
Screen: 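Fly genes required for HIF-dependent transcription when hypoxia is mimicked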 (primary screen). Cell system: Drosophila S2 cells with a stable HIF luciferase reporter. Reagents: long dsRNA against Drosophila genes, about 0.2 µg dsRNA per well of a 384-well plate. Timing: three days of knock-down, then 20 h of DFO before reading. Treatment: desferrioxamine (DFO) at 100 µM, an iron chelator that mimics hypoxia, for 20 h. Detection: 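HIF reporter luminescence in cells given 100 µM DFO for 20 h, using the mouse ldh-a hypoxia-response element, scored as per-plate z-scores; higher means greater loss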. Scale: z-score: higher = stronger loss of HIF reporter signal.
The deposit covers about 21,000 reagents; below is an unselected part of those that have a named target and a result. 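Primary screen; positive scores mean lost reporter signal, so the sign may be inverted from the usual convention.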 The numbers tell different reagents against one gene apart. Not all columns of the deposit are shown. No sequences are given here.

z-score, replicate 1, by target gene and reagent
Prdm13: #1 -0.3
spt4: #1 0.5
CG13771: #1 -0.3
Pis: #1 -0.3
CG17078: #1 -0.2
CG13114: #1 -0.2
GstD11: #1 -0.3
CG13300: #1 -0.4
pncr004:X (retired record): #1 -0.2
trc: #1 -0.1
CG43867: #1 -0.1; #2 -0.3; #3 -0.2; #4 -0.2
CG17549: #1 -0.3
Tengl1: #1 -0.1
CG14135: #1 -0.1
mud: #1 -0.2
Prp40: #1 0.6
RpLP0: #1 -0.4
Drak: #1 -0.3
CG33278: #1 -0.1
Stam: #1 2.2
Hmgcl: #1 -0.1
Wdr92: #1 -0.4
CG5001: #1 -0.4
CG10038: #1 -0.4
hale: #1 -0.3
CG9263: #1 -0.2
Prx6c: #1 -0.1
Lk6: #1 -0.6; #2 -0.4
Rab30: #1 -0.4
CG12609: #1 -0.2
Nacalpha: #1 0.7
Him: #1 -0.4

Targets listed so far whose gene name starts with P or p (5):
z-score, replicate 1, by target gene and reagent
Prdm13: #1 -0.3
Pis: #1 -0.3
pncr004:X (retired record): #1 -0.2
Prp40: #1 0.6
Prx6c: #1 -0.1

The results go on.
z-score, replicate 1, by target gene and reagent
gek: #1 -0.2
Delta: #1 -1.2
CG10734: #1 -0.3
lectin-37Da: #1 -0.3
CG3860: #1 -0.3
CG12464: #1 -0.2
hbs: #1 -0.3
Pten: #1 -0.4
CG16953: #1 -0.3
List: #1 -0.3
lectin-30A: #1 -0.1
Mes2: #1 1.6; #2 0.8
Mdr49: #1 0
CG2691: #1 0.4
CG5662: #1 -0.6
Art1: #1 -0.4
Or1a: #1 -0.4
CG4998: #1 -0.1
CG15927: #1 -0.1
CG12470: #1 -0.4
Prp6: #1 -0.3
p130CAS: #1 -0.2; #2 4.9
CG32425: #1 1.4; #2 -0.3
CG12054: #1 2.2
Cpr49Ad: #1 -0.3
Vinc: #1 -0.2
CG6972: #1 -0.4
CG14054: #1 -0.2
CtsL4: #1 -0.1
mRpL52: #1 0.9
CG10479: #1 -0.1
Nup93-1: #1 0.5
Phm: #1 -0.2
CG10738: #1 -0.4
RpS27A: #1 3.7
Dpp10: #1 0.1; #2 -0.2
CG9812: #1 -0.3
Cyp9f2: #1 -0.4
Ptp36E: #1 0.7
brn: #1 -0.2
Fas3: #1 0.1; #2 -0.1
CG15239: #1 -0.2
